Data as given in the supplement of paper PMC6658780.
Structures can show the parent of a compound that is named as a salt. ± gives the standard deviation of the averaged measurements. This is one part of the list. Repeats in this data set agree poorly, so a single value says little.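 The A. baumannii strains are clinical isolates chosen because they resist the partner antibiotic, and the screen looks for drugs that restore that antibiotic's effect. The reading at the start of incubation is subtracted to remove background from coloured compounds.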

Test system: Acinetobacter baumannii WP-487
Assay: percent growth inhibition of drug + antibiotic vs DMSO control; higher = more growth inhibition
Settings: antibiotic (0.125x MIC): colistin; 7 µM
Method: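 Prestwick drugs tested at 20 uM and 7 uM with an antibiotic at 0.125x MIC (16 mg/L when MIC >128 mg/L) in cation-adjusted Mueller-Hinton broth, 384-well plates, duplicate runs on different days. Percent growth inhibition was computed from OD600 (24 h minus 0 h) relative to DMSO-only wells. Drug + 0.1% DMSO (no antibiotic) wells are also given. Only hits (max corrected inhibition > mean + 3SD) are listed. A. baumannii: NCTC-13301 was used for MEM/CIP/GEN/TGC and WP-487 for colistin. Duplicates with colistin are strongly discordant (run 2 near 100% for most drugs).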

| SMILES | percent growth inhibition [%] |
| --- | --- |
| Cc1cc(N)c2ccccc2[n+]1CCCCCCCCCC[n+]1c(C)cc(N)c2ccccc21 [Dequalinium dichloride] | 19.8 ± 7.6 |
| CC(C)COCC(CN(Cc1ccccc1)c1ccccc1)N1CCCC1 (stereo not given) [Bepridil hydrochloride] | 3.43 ± 3.1 |
| COc1cccc2c1C(=O)c1c(O)c3c(c(O)c1C2=O)C[C@@](O)(C(=O)CO)C[C@@H]3O[C@H]1C[C@H](N)[C@@H](O)[C@H](C)O1 [Epirubicin hydrochloride] | 3.78 ± 5.7 |
| Clc1ccc(CCC(Cn2ccnc2)Sc2c(Cl)cccc2Cl)cc1 (stereo not given) [Butoconazole nitrate] | 52.2 ± 55 |
| Cc1nc2n(c(=O)c1CCN1CCC(c3noc4cc(F)ccc34)CC1)CCCC2 [Risperidone] | -1.45 ± 0.83 |
| Nc1ccc(S(=O)(=O)Nc2ccc(Cl)nn2)cc1 [Sulfachloropyridazine] | -0.365 ± 12 |
| C#C[C@]1(O)CC[C@H]2[C@@H]3CCC4=CCCC[C@@H]4[C@H]3CC[C@@]21C [Lynestrenol] | 47.4 ± 74 |
| CC/C(=C(\c1ccccc1)c1ccc(OCCN(C)C)cc1)c1ccccc1 [Tamoxifen citrate] | 42.2 ± 67 |
| CN[C@H](CC(C)C)C(=O)N[C@H]1C(=O)N[C@@H](CC(N)=O)C(=O)N[C@H]2C(=O)N[C@H]3C(=O)N[C@H](C(=O)N[C@H](C(=O)O)c4cc(O)cc(O)c4-c4cc3ccc4O)[C@H](O)c3ccc(c(Cl)c3)Oc3cc2cc(c3O[C@@H]2O[C@H](CO)[C@@H](O)[C@H](O)[C@H]2O[C@H]2C[C@](C)(N)[C@H](O)[C@H](C)O2)Oc2ccc(cc2Cl)[C@H]1O [Vancomycin hydrochloride] | -0.434 ± 6.5 |
| CC[C@H]1OC(=O)C[C@@H](O)[C@H](C)[C@@H](O[C@@H]2O[C@H](C)[C@@H](O[C@H]3C[C@@](C)(O)[C@@H](O)[C@H](C)O3)[C@H](N(C)C)[C@H]2O)[C@@H](CC=O)C[C@@H](C)C(=O)/C=C/C(C)=C/[C@@H]1CO[C@@H]1O[C@H](C)[C@@H](O)[C@@H](OC)[C@H]1OC [Tylosin] | 43.9 ± 65 |
| C#Cc1cccc(Nc2ncnc3cc(OCCOC)c(OCCOC)cc23)c1 [Erlotinib] | -1.84 ± 1.4 |
| COC(=O)C1=C(C)NC(C)=C(C(=O)OC2CCCN(Cc3ccccc3)C2)C1c1cccc([N+](=O)[O-])c1 (stereo not given) [Benidipine hydrochloride] | 57.2 ± 61 |
| O=C1Nc2ccc(Cl)cc2[C@@](C#CC2CC2)(C(F)(F)F)O1 [Efavirenz] | 42.5 ± 66 |
| CC(=O)O[C@H]1C[C@@]2(C)[C@@H](C[C@@H](O)[C@H]3[C@@]4(C)CC[C@@H](O)[C@@H](C)[C@@H]4CC[C@@]32C)/C1=C(\CCC=C(C)C)C(=O)O [Fusidic acid sodium salt] | 52.6 ± 54 |
| Cc1cc(C(C)(C)CC(C)(C)C)ccc1OCCOCC[N+](C)(C)Cc1ccccc1 [Methyl benzethonium chloride] | 58.8 ± 48 |
| O=C1CCc2ccc(OCCCCN3CCN(c4cccc(Cl)c4Cl)CC3)cc2N1 [Aripiprazole] | 51.4 ± 56 |
| O=c1[nH]cnc2c1ncn2[C@H]1CC[C@@H](CO)O1 [Didanosine] | 10.2 ± 13 |
| Clc1ccc(COC(Cn2ccnc2)c2ccc(Cl)cc2Cl)c(Cl)c1 (stereo not given) [Miconazole] | 51.1 ± 56 |
| C1CCC(C(CC2CCCCN2)C2CCCCC2)CC1 (stereo not given) [Perhexiline maleate] | 56 ± 51 |
| CN(Cc1cc(Br)cc(Br)c1N)C1CCCCC1 [Bromhexine hydrochloride] | -0.256 ± 2.7 |

Same assay, conditions: antibiotic (0.125x MIC): colistin; 20 µM

| SMILES | percent growth inhibition [%] |
| --- | --- |
| Cc1cc(N)c2ccccc2[n+]1CCCCCCCCCC[n+]1c(C)cc(N)c2ccccc21 [Dequalinium dichloride] | 67.8 ± 46 |
| CC(C)COCC(CN(Cc1ccccc1)c1ccccc1)N1CCCC1 (stereo not given) [Bepridil hydrochloride] | 49.9 ± 71 |
| COc1cccc2c1C(=O)c1c(O)c3c(c(O)c1C2=O)C[C@@](O)(C(=O)CO)C[C@@H]3O[C@H]1C[C@H](N)[C@@H](O)[C@H](C)O1 [Epirubicin hydrochloride] | 69.1 ± 38 |
| Clc1ccc(CCC(Cn2ccnc2)Sc2c(Cl)cccc2Cl)cc1 (stereo not given) [Butoconazole nitrate] | 53.7 ± 54 |
| Cc1nc2n(c(=O)c1CCN1CCC(c3noc4cc(F)ccc34)CC1)CCCC2 [Risperidone] | 52.4 ± 65 |
| Nc1ccc(S(=O)(=O)Nc2ccc(Cl)nn2)cc1 [Sulfachloropyridazine] | 46.6 ± 68 |
| C#C[C@]1(O)CC[C@H]2[C@@H]3CCC4=CCCC[C@@H]4[C@H]3CC[C@@]21C [Lynestrenol] | 7.36 ± 9.5 |
| CC/C(=C(\c1ccccc1)c1ccc(OCCN(C)C)cc1)c1ccccc1 [Tamoxifen citrate] | 66.3 ± 39 |
| CN[C@H](CC(C)C)C(=O)N[C@H]1C(=O)N[C@@H](CC(N)=O)C(=O)N[C@H]2C(=O)N[C@H]3C(=O)N[C@H](C(=O)N[C@H](C(=O)O)c4cc(O)cc(O)c4-c4cc3ccc4O)[C@H](O)c3ccc(c(Cl)c3)Oc3cc2cc(c3O[C@@H]2O[C@H](CO)[C@@H](O)[C@H](O)[C@H]2O[C@H]2C[C@](C)(N)[C@H](O)[C@H](C)O2)Oc2ccc(cc2Cl)[C@H]1O [Vancomycin hydrochloride] | 53.9 ± 65 |
| CC[C@H]1OC(=O)C[C@@H](O)[C@H](C)[C@@H](O[C@@H]2O[C@H](C)[C@@H](O[C@H]3C[C@@](C)(O)[C@@H](O)[C@H](C)O3)[C@H](N(C)C)[C@H]2O)[C@@H](CC=O)C[C@@H](C)C(=O)/C=C/C(C)=C/[C@@H]1CO[C@@H]1O[C@H](C)[C@@H](O)[C@@H](OC)[C@H]1OC [Tylosin] | 56 ± 51 |
| C#Cc1cccc(Nc2ncnc3cc(OCCOC)c(OCCOC)cc23)c1 [Erlotinib] | 53.4 ± 66 |
| COC(=O)C1=C(C)NC(C)=C(C(=O)OC2CCCN(Cc3ccccc3)C2)C1c1cccc([N+](=O)[O-])c1 (stereo not given) [Benidipine hydrochloride] | 21.7 ± 5.3 |
| O=C1Nc2ccc(Cl)cc2[C@@](C#CC2CC2)(C(F)(F)F)O1 [Efavirenz] | 49 ± 59 |
| CC(=O)O[C@H]1C[C@@]2(C)[C@@H](C[C@@H](O)[C@H]3[C@@]4(C)CC[C@@H](O)[C@@H](C)[C@@H]4CC[C@@]32C)/C1=C(\CCC=C(C)C)C(=O)O [Fusidic acid sodium salt] | 54.5 ± 53 |
| Cc1cc(C(C)(C)CC(C)(C)C)ccc1OCCOCC[N+](C)(C)Cc1ccccc1 [Methyl benzethonium chloride] | 79 ± 24 |
| O=C1CCc2ccc(OCCCCN3CCN(c4cccc(Cl)c4Cl)CC3)cc2N1 [Aripiprazole] | 59.3 ± 48 |
| O=c1[nH]cnc2c1ncn2[C@H]1CC[C@@H](CO)O1 [Didanosine] | 53.5 ± 65 |
| Clc1ccc(COC(Cn2ccnc2)c2ccc(Cl)cc2Cl)c(Cl)c1 (stereo not given) [Miconazole] | 53 ± 54 |
| C1CCC(C(CC2CCCCN2)C2CCCCC2)CC1 (stereo not given) [Perhexiline maleate] | 60.6 ± 45 |
| CN(Cc1cc(Br)cc(Br)c1N)C1CCCCC1 [Bromhexine hydrochloride] | 52.3 ± 68 |
